The assay has as its target somatostatin receptor 4 (SSTR4), endogenous in rat brain, spinal cord and cultured striatal neurons (rat (endogenous in brain, spinal cord and cultured striatal neurons)) (UniProt P30937). Briefly: co-IP; rat cortex, striatum and spinal cord tissue lysate (250 µg protein in 50 mM HEPES, 2 mM CaCl2, 5 mM MgCl2, pH 7.5), basal or treated with L-803087 (10 nM), SB-205607 (10 nM) alone or in combination for 30 min at 37°C; immunoprecipitated with SSTR4 antibody, blotted for δOR.

The chains behind the UniProt entries cited, without tags or fusion partners.
UniProt P30937: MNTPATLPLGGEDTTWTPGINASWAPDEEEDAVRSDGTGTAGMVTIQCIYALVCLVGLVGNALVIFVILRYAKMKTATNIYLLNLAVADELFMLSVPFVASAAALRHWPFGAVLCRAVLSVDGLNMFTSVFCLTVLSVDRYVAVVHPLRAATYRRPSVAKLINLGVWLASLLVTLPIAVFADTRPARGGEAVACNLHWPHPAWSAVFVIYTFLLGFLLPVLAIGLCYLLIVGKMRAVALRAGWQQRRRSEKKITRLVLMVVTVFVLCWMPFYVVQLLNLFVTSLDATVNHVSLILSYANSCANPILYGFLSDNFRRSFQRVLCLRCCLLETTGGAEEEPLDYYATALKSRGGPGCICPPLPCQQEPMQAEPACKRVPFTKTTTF

Results are given in words; binding and its absence hold for the method and conditions named. In cells and extracts the contact can be indirect. Some binding calls cover weakened binding; strength is not graded here.

The source of these data is publication PMC3885706.

For “δ-Opioid receptor (δOR), endogenous in rat brain, spinal cord and cultured striatal neurons (from UniProt P33533 1-372)”, the binding entry is on record as “binds”.
